Data as given in PubChem BioAssay AID1259281 (Sanger Institute, 2017)
In all, the deposit lists 794 reagents; this is a part drawn at random. Of all reagents, 22 (2.8%) were called active. 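Calls rest on knock-down alone only; drug synergy scores play no part in them.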 A number with no mark means an inactive call. Further read-outs or replicates are left out here. Not stated in the record: the amount of reagent, the time to read-out.

Test: 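Identify essential genes and drug-enhancing knock-downs among kinases and common colorectal mutated genes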 (primary screen)
Cell system: human COLO678 colorectal cancer cell line
Reagents: siRNA pool against human genes
Challenge: anchor drugs at fixed doses: BYL719 1 µM, cetuximab 5 µg/ml or trametinib 10 nM; DMSO vehicle for the siRNA-alone arm
Read-out: 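Cell viability compared with non-targeting pool wells, averaged over replicates; knock-down-alone effect also as robust z-score; synergy scores set knock-down plus drug against expected joint effect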
Reading the numbers: robust z-score, siRNA alone: higher = more viable cells; strongly negative means essential
Hit rule: 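Called essential (knock-down alone) if knock-down by itself drops cell number to a robust z-score under -3; all others no change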
Calls: active = essential (knock-down alone); inactive = no change

| robust z-score, siRNA alone | gene |
| --- | --- |
| -1.17 | TEC |
| -0.714 | DGUOK |
| 0.473 | PTK6 |
| 0.455 | AK7 |
| 0.473 | MTOR |
| 0.0215 | TBCK |
| 0.473 | LIMK2 |
| 0.473 | NEK4 |
| 0.311 | TESK1 |
| -2.39 | FASTK |
| 0.473 | COQ8B |
| 0.473 | MAP4K4 |
| 0.473 | EIF2AK2 |
| -2.35 | RPS6KB2 |
| 0.473 | WNK3 |
| 0.473 | PRKCQ |
| 0.473 | CKS2 |
| -3.13 (active) | TRIB2 |
| -0.146 | CRIM1 |
| 0.473 | CSNK2A1 |
